PubChem BioAssay AID743454 – Peter MacCallum Cancer Centre | 2014
Screen: 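Search for knock-downs that restore vorinostat killing in resistant colon cancer cells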 (primary screen). Cells: human HCT116-VR colon cancer cells, selected for vorinostat resistance. Knock-down reagent: siRNA pool against human genes, 40 nM siRNA pool. Time to read-out: vorinostat for 24 h, read-out about 72 h after transfection. Challenge: vorinostat at 2.5 µM final. Measurement: 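Cell viability by CellTiter-Fluor and caspase 3/7 activity by luminescence, each scaled to mock wells per plate, duplicates averaged, then robust z-scored over all plates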. Direction: viability robust z-score: higher = more viable cells than screen typical; caspase robust z-score: higher = more caspase 3/7 activity than screen typical. Hit rule: 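a knock-down is a hit when classed RV1 or RV2 for lowered viability, or CA1 or CA2 for caspase activation; those lethal without drug were dropped; hits were retested singly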.
Shown is one part, drawn at random, of about 18,000 reagents tested. 450 of them (2.5%) count as active. 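Single biological run; no consistent viability z cut-off exists, so the class columns, not z-scores, define the calls.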 A number with no mark means an inactive call.

RTN1: viability hit class = no change; caspase hit class = no change; viability robust z-score = -0.49; caspase robust z-score = 0.41
ATP7B: viability hit class = no change (active); caspase hit class = CA1 (caspase activation); viability robust z-score = -0.92; caspase robust z-score = 5.55
PTPN2: viability hit class = no change; caspase hit class = no change; viability robust z-score = 0.13; caspase robust z-score = -0.73
IL13RA2: viability hit class = no change; caspase hit class = no change; viability robust z-score = -1.06; caspase robust z-score = 1.82
MPZL3: viability hit class = no change; caspase hit class = no change; viability robust z-score = -0.36; caspase robust z-score = 0.74
CD5: viability hit class = no change; caspase hit class = no change; viability robust z-score = -0.31; caspase robust z-score = 0.26
TRIM49C: viability hit class = no change; caspase hit class = no change; viability robust z-score = 0.94; caspase robust z-score = -0.52
OR2A42: viability hit class = no change; caspase hit class = no change; viability robust z-score = -0.95; caspase robust z-score = 1.43
EVPL: viability hit class = no change; caspase hit class = no change; viability robust z-score = 0.11; caspase robust z-score = -0.88
IFRD2: viability hit class = no change; caspase hit class = no change; viability robust z-score = -0.09; caspase robust z-score = 1.57
IL36RN: viability hit class = no change; caspase hit class = no change; viability robust z-score = 1.16; caspase robust z-score = 1.98
DNAJC17: viability hit class = no change; caspase hit class = no change; viability robust z-score = 0.57; caspase robust z-score = -0.05
TNFRSF8: viability hit class = no change; caspase hit class = no change; viability robust z-score = -1.38; caspase robust z-score = 2.51
CEP290: viability hit class = no change; caspase hit class = no change; viability robust z-score = 0.29; caspase robust z-score = 0.31
